About 4,000 (1%) of roughly 390,000 compounds were called active. This list was built around the results that the source calls inconclusive (neither active nor inactive); the mix of calls is not that of the screen. Calls follow the shape of the dose curve; as a rule, active = well fitted inhibition curve with a large enough effect; inconclusive = small, poorly fitted or top-dose-only effect, or another doubt; inactive = no such curve, though single readings can be large or run the other way. Where the call is inconclusive, the potency comes from a doubtful curve fit.
What follows are molecules tested against DNA polymerase iota (Homo sapiens) (UniProt Q9UNA4) (assay: qHTS for Inhibitors of Polymerase Iota). Details: Pol iota fluorescent replication assay, 10 min; series mostly up to 115 µM; activity, negative = inhibition: at the top concentration.
Procedure, shortened: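 Fluorescent replication assay read twice, at 0 min and 10 min after adding 50 nM (final) substrate. Enzyme (10 nM) and compounds were first incubated 15 min at room temperature; enzyme-free buffer wells were negative controls.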
Potency is read from the fitted curve at half-maximal effect.

The chains behind the UniProt entries cited, without tags or fusion partners. Where a name states a change or a piece, a line headed by the entry shows the natural chain unless it says otherwise.
UniProt Q9UNA4: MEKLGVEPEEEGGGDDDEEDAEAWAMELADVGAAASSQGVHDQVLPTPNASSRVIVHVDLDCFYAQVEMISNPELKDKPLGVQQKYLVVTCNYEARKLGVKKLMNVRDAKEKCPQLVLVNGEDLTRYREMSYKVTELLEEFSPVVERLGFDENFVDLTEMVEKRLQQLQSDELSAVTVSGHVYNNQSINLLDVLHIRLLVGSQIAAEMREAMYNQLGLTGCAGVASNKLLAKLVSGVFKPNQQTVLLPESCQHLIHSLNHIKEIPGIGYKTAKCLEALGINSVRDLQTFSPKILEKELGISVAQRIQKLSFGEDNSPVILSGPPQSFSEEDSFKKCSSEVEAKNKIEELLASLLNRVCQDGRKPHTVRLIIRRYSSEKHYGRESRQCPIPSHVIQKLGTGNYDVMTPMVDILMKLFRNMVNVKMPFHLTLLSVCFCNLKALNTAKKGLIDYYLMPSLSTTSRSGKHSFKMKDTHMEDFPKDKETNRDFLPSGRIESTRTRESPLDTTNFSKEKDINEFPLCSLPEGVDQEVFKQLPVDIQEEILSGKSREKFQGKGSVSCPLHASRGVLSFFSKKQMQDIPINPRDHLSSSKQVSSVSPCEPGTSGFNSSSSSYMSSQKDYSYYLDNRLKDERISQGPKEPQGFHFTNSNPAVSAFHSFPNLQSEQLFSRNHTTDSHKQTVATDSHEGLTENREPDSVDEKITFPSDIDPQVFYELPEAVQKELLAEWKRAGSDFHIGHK

SMILES	Potency	activity, negative = inhibition
CN1CCN(/N=C/c2ccc(-c3ccc([N+](=O)[O-])cc3Cl)o2)CC1	inconclusive: 89.1 µM [inhibitor, single point]	
COc1ccc(-c2nc(C#N)c(NC(C)C)o2)cc1	inconclusive: 89.1 µM [inhibitor, single point]	
S=C(Nc1ccc(Oc2ccccc2)cc1)NC1CCCC1		inactive: 2.99%
CC(C)=CCc1c(O)cc2oc3c(CC=C(C)C)c(O)c(O)c(CC=C(C)C)c3c(=O)c2c1O	inconclusive: 12.6 µM [inhibitor, partial curve, poor fit]	
O=C(Nc1ccccc1Cl)C1CCN(c2nc3ccccc3nc2C(F)(F)F)CC1		inactive: 16.2%
C=C1CCN(C(C(=O)NCc2ccc(Cl)c(Cl)c2)C(C)C)S(=O)(=O)c2ccccc21 (stereo not given)	inconclusive: 56.2 µM [inhibitor, partial curve, poor fit]	
CC(C)(C)C(=O)NC(=S)N1CCc2ccccc21	inconclusive: 1.78 µM [inhibitor, full curve]	
Cc1ccc(S(=O)(=O)Nc2cccc3ncccc23)s1	inconclusive: 7.08 µM [inhibitor, single point]	
CCOc1ccccc1NC(=O)CSc1nnc2[nH]c(=O)cc(-c3ccccc3)n12	inconclusive: 20 µM [inhibitor, partial curve, poor fit]	
O=C(c1ncn(Cc2ccccc2)c1C(=O)N1CCc2ccccc2C1)N1CCc2ccccc2C1	inconclusive: 28.2 µM [inhibitor, single point]	
O=C(NCCn1cc(SCc2ccccc2Cl)c2ccccc21)c1cccs1		inactive: 0.0958%
Cc1ccc(C(=O)NN2C(=O)CSC2=S)cc1	inconclusive: 8.91 µM [inhibitor, partial curve, poor fit]	
S=c1[nH]nc(-c2ccc(Cl)cc2)n1-c1ccc2c(c1)OCCO2	inconclusive: 112 µM [inhibitor, partial curve, poor fit]	
COc1ccc(S(=O)(=O)n2nc(-c3ccco3)nc2NCc2ccc(N(C)C)cc2)cc1		inactive: 4.38%
O=C(CNc1ccc(C(F)(F)F)cc1)Nc1cccc(S(=O)(=O)N2CCCC2)c1	inconclusive: 1.58 µM [inhibitor, partial curve, poor fit]	
CCOC(CCn1ccc(O)c(Cc2ccc(Cl)cc2)c1=O)OCC	inconclusive: 3.55 µM [inhibitor, partial curve, poor fit]	
COc1cc(/C=C2/SC(=S)N(CC(=O)Nc3nc4ccccc4s3)C2=O)cc(OC)c1OC	inconclusive: 89.1 µM [inhibitor, partial curve]	
CC1CN(c2ccccc2)C(=O)CS1 (stereo not given)	inconclusive: 14.1 µM [inhibitor, full curve, poor fit]	
Cc1ccc2scc(N3CCc4ccccc4C3)c(=O)c2c1		inactive: -3.03%
CC(C)CC(=O)Nc1nnc(SCC(=O)Nc2nccs2)s1	inconclusive: 100 µM [inhibitor, single point]	
CC(=O)c1ccc(OC(=O)c2nc(-c3ccccc3)oc2C)cc1	inconclusive: 28.2 µM [inhibitor, full curve]	
Cc1ccc(C(=O)Nc2nnc(CC(=O)N/N=C/c3ccc(O)c(O)c3)s2)cc1	inconclusive: 6.31 µM [inhibitor, partial curve, poor fit]	

Two entries from above, in markdown.

| SMILES | Potency | activity, negative = inhibition |
| --- | --- | --- |
| C=C1CCN(C(C(=O)NCc2ccc(Cl)c(Cl)c2)C(C)C)S(=O)(=O)c2ccccc21 (stereo not given) | inconclusive: 56.2 µM [inhibitor, partial curve, poor fit] |  |
| CC(C)(C)C(=O)NC(=S)N1CCc2ccccc21 | inconclusive: 1.78 µM [inhibitor, full curve] |  |

Carrying on.

SMILES	Potency	activity, negative = inhibition
C=CCN1C=C2C(=O)C(C)(OC(=O)C3CCCC3)C(=O)C=C2C=C1c1ccsc1 (stereo not given)	inconclusive: 17.8 µM [inhibitor, partial curve, poor fit]	
CCCC(=O)C1=C(c2ccccc2)C(C#N)(C#N)C(C#N)=C1N	inconclusive: 35.5 µM [inhibitor, partial curve]	
Cn1cccc1-c1nc2ccc(NC(=O)c3cccs3)cc2[nH]1	inconclusive: 44.7 µM [inhibitor, partial curve]	
CCc1c(C(=O)Nc2ccccc2)c(C)[nH]c(=S)c1C#N		inactive: 1.55%
CN(C)CCNC(=O)COc1ccc(C23CC4CC(CC(C4)C2)C3)cc1	inconclusive: 7.94 µM [inhibitor, partial curve, poor fit]	
C#CCOCCOCCOCCNc1nc(N2CCN(C(=O)C([C@@H](C)CC)n3cc(C(N)COC(=O)C(F)(F)F)nn3)CC2)nc(N2CCN(C(=O)[C@H](Cc3cc4ccccc4[nH]3)n3cc(C(N)CO)nn3)CC2)n1 (stereo not given in full)	inconclusive: 7.94 µM [inhibitor, full curve]	
O=C(COc1ccc(F)cc1)NN1C(=O)CSC1=S	inconclusive: 15.8 µM [inhibitor, partial curve, poor fit]	
O=C(O)C1=C[C@H](c2ccc3c(c2)OCO3)C[C@H](OCc2ccc(CO)cc2)O1	inconclusive: 1.78 µM [inhibitor, full curve, poor fit]	
CC(=O)c1ccccc1NC(=O)c1ccc(OCc2c(C)noc2C)cc1	inconclusive: 15.8 µM [inhibitor, full curve]	
CCN(CCCNC(=O)c1cc2cc3ccc(OC)cc3nc2s1)c1cccc(C)c1	active: 79.4 µM	
COc1cc(SC)ccc1C(=O)OCC(=O)N1CCN(C(C)=O)CC1		inactive: 5.83%
COc1ccc(Nc2cnn(-c3nc4ccccc4s3)c(=O)c2Cl)cc1	inconclusive: 28.2 µM [inhibitor, single point]	
O=c1c2ccccc2oc2ccc(-c3ccc4[nH]ccc4c3)cc12		inactive: -16.3%
Clc1ccccc1-c1nnc(-c2ccccc2CNc2ccc(Br)cc2)o1		inactive: 5.51%
O=[N+]([O-])/C=C\c1ccc(N2CCCC2)c(F)c1	inconclusive: 1.78 µM [inhibitor, full curve, poor fit]	
COc1cccc2c1C(=N)c1c(O)c3c(c(O)c1C2=O)CC(O)(C(C)=O)CC3OC1CC(N)C(O)C(C)O1 (stereo not given)	inconclusive: 89.1 µM [inhibitor, partial curve, poor fit]	
CCOc1ccc(CCNC(=O)Cn2ncc3c([nH]c4ccccc43)c2=O)cc1OCC		inactive: 16.3%
Cc1[nH]nc(C(=O)NN=Cc2ccccc2Cl)c1N=NN(C)C	inconclusive: 7.08 µM [inhibitor, full curve, poor fit]	
O=C(N/N=C/c1ccc([N+](=O)[O-])o1)c1ccc(O)cc1	inconclusive: 89.1 µM [inhibitor, single point]	
CC(=O)Nc1ccc(N=Cc2nc(-c3ccc(C)cc3)oc2O)cc1	inconclusive: 22.4 µM [inhibitor, partial curve, poor fit]	
Cc1ccc(C23CC4CC(CC(C(=O)NCC(=O)O)(C4)C2)C3)cc1	inconclusive: 63.1 µM [inhibitor, single point]	
NC(=O)c1ccc(NC(=O)COC(=O)c2ccc(Cl)nc2)cc1		inactive: -10.4%

SMILES	Potency	activity, negative = inhibition
Cc1ccc(Cl)cc1N1CCN(C(=O)c2ccc3c(c2)N(Cc2ccccc2F)C(=O)c2ccccc2S3=O)CC1 (stereo not given)		inactive: 35.8%
O=C(N/N=C/c1cc(Cl)ccc1O)c1ccc(Br)cc1	inconclusive: 15.8 µM [inhibitor, full curve, poor fit]	
Cc1oc2c(O)c(O)ccc2c(=O)c1-c1ccc(Cl)cc1	inconclusive: 31.6 µM [inhibitor, partial curve]	
Cc1cccc(Cn2cnc3c(oc4ccccc43)c2=O)c1		inactive: 23.9%
Nc1nc(NCCc2ccccc2)c2[nH]cnc2n1	inconclusive: 70.8 µM [inhibitor, partial curve]	
CC(C)Nc1nc(NC(C)C)nc(Oc2ccc(/C=N/O)cc2)n1	inconclusive: 11.2 µM [inhibitor, partial curve, poor fit]	
O=S(=O)(c1ccc(Cl)cc1)N1CCN(c2nc(-c3ccccc3)nc3ccccc23)CC1		inactive: -0.673%
COc1ccc(-n2c(C)nc3cc(C(=O)NC4CCCCCC4)ccc32)cc1	inconclusive: 100 µM [inhibitor, single point]	
COc1ccc(CCC(=O)Nc2ccc(OC)c(S(=O)(=O)N3CCCCC3)c2)cc1		inactive: -14.7%
COC(=O)c1c(NC(=O)c2nc(SCc3ccccc3C)ncc2Cl)sc2c1CCCC2		inactive: 31.1%
CN1CCN(C(c2ccccc2)c2ccc(Cl)cc2)CC1 (stereo not given)		inactive: 3.56%
CCCN(CCC)CCNC(=O)c1sc2nc3n(c(=O)c2c1C)CCCCC3		inactive: 72.5%
CCc1c(C)sc2c1CCN(C(=O)Nc1cc(C)ccc1OC)C2c1ccc(F)cc1 (stereo not given)		inactive: 16.5%
CCn1c(=O)c2ccccc2n2c(SCC(=O)N3CCc4ccccc4C3)nnc12	inconclusive: 89.1 µM [inhibitor, single point]	
COc1ccc(S(=O)(=O)N(C)CC(=O)N2CCOCC2)cc1	inconclusive: 89.1 µM [inhibitor, single point]	
COc1ccc(NC(=O)CN2C(=O)C3(SCC(=O)N3c3ccccc3)c3ccccc32)cc1Cl (stereo not given)	inconclusive: 89.1 µM [inhibitor, partial curve]	
CS(=O)(=O)c1ccc2nc(NC(=O)c3ccc(=O)[nH]c3)sc2c1	active: 50.1 µM	
Cc1ccc(Cn2cc(/C=N/NC(=O)Cc3nnc(NC(=O)c4ccc(C)cc4)s3)c3ccccc32)cc1	inconclusive: 56.2 µM [inhibitor, single point]	
COc1ccc(OC)c2[nH]c(=O)c(CCNC(=O)Cc3cccs3)cc12	inconclusive: 100 µM [inhibitor, partial curve, poor fit]	
Cc1ccc(N2CCN(S(=O)(=O)c3ccc4c(c3)NC(=O)C(C)C(=O)N4)CC2C)cc1 (stereo not given)	inconclusive: 63.1 µM [inhibitor, single point]	
O=C1c2cccnc2C(=O)N1Cc1ccc2c(c1)OCO2	inconclusive: 70.8 µM [inhibitor, partial curve]	

From PubChem BioAssay AID588590 (National Center for Advancing Translational Sciences (NCATS), 2011)
